Record: PubChem BioAssay AID686938 (Drosophila RNAi Screening Center, 2013)
In all, the deposit lists about 23,000 reagents; this is an unselected part of those that have a named target and a result. Of all reagents, 75 (0.33%) got an active call. 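Raw plate signals without normalisation; calls rest on plate z-scores that were not deposited; ratio present for only 364 wells.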 Reagent sequences are not shown. Not given: the dose of the treatment.

Test: 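Fly genes required for calcium entry once internal stores are emptied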 (primary screen)
Cells: Drosophila S2R+ cells
Reagents: long dsRNA against Drosophila genes, about 0.25 µg dsRNA per well, roughly 10,000 cells
Time to read-out: 5 days of knock-down before the calcium assay
Conditions: thapsigargin (SERCA pump blocker) to empty calcium stores; entry signal taken 4 min after adding it
Read-out: 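Duplicate raw fluo-4 intensities per well from a plate reader, at rest and four minutes after thapsigargin emptied calcium stores; entry-to-rest ratio filled for only some wells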
Direction: calcium entry signal: higher = stronger calcium signal after store depletion; resting calcium signal: higher = higher resting calcium signal
Active means: 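Hit if the duplicate-averaged plate z-score for entry over resting signal is under −3; wells with weak total dye signal (Fmax z < −2) or more than 5 off-targets removed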
Meaning of the calls: active = strongly reduced calcium entry; inactive = no strong reduction

Target gene | amplicon | calcium entry signal, replicate 1 (fluorescence units) | calcium entry signal, replicate 2 (fluorescence units) | resting calcium signal, replicate 1 (fluorescence units) | resting calcium signal, replicate 2 (fluorescence units) | Outcome
CG13308 | DRSC09979 | 3.40e7 | 4.79e7 | 1.63e7 | 2.17e7 | inactive
ND4 (retired record) | DRSC21269 | 2.50e7 | 3.54e7 | 1.40e7 | 1.68e7 | inactive
nsl1 (non-specific lethal 1) | DRSC15625 | 2.43e7 | 2.13e7 | 1.60e7 | 1.35e7 | active
Gycbeta100B (Guanylyl cyclase beta-subunit at 100B) | DRSC14039 | 3.64e7 | 4.47e7 | 2.14e7 | 2.01e7 | inactive
Gycbeta100B (Guanylyl cyclase beta-subunit at 100B) | DRSC14040 | 3.73e7 | 4.65e7 | 2.12e7 | 2.09e7 | inactive
Gycbeta100B (Guanylyl cyclase beta-subunit at 100B) | DRSC16691 | 4.04e7 | 5.44e7 | 1.65e7 | 2.31e7 | inactive
eys (eyes shut) | DRSC00113 | 2.80e7 | 3.42e7 | 1.66e7 | 1.53e7 | inactive
eys (eyes shut) | DRSC00402 | 3.63e7 | 3.96e7 | 1.88e7 | 1.72e7 | inactive
eys (eyes shut) | DRSC00403 | 3.27e7 | 3.62e7 | 1.55e7 | 1.67e7 | inactive
eys (eyes shut) | DRSC00695 | 4.55e7 | – | 2.14e7 | – | inactive
RpS10a (Ribosomal protein S10a) | DRSC14161 | 4.07e7 | 4.89e7 | 2.00e7 | 2.22e7 | inactive
CG42818 | DRSC01963 | 5.14e7 | 3.61e7 | 2.25e7 | 1.81e7 | inactive
yip3 (yippee interacting protein 3) | DRSC04724 | 1.90e7 | 2.47e7 | 1.22e7 | 1.14e7 | inactive
Lrt (Leucine-rich tendon-specific protein) | DRSC06045 | 2.72e7 | 3.27e7 | 1.42e7 | 1.41e7 | inactive
CG6432 | DRSC16039 | 4.40e7 | 2.96e7 | 2.05e7 | 1.38e7 | inactive
CG17475 | DRSC15238 | 4.12e7 | 4.26e7 | 1.90e7 | 6.12e7 | inactive
RIOK1 (RIO kinase 1) | DRSC09853 | 4.70e7 | 3.82e7 | 3.40e7 | 1.47e7 | inactive
spz (spatzle) | DRSC17065 | 3.04e7 | 3.85e7 | 1.38e7 | 1.67e7 | inactive
Ir68a (Ionotropic receptor 68a) | DRSC10599 | 3.13e7 | 4.92e7 | 1.64e7 | 2.17e7 | inactive
CG33339 | DRSC22917 | 4.26e7 | 3.25e7 | 2.20e7 | 1.61e7 | inactive
Vha13 (Vacuolar H[+] ATPase 13kD subunit) | DRSC16895 | 3.66e7 | 4.72e7 | 2.69e7 | 3.71e7 | inactive
CG13159 | DRSC06283 | 3.39e7 | 3.30e7 | 1.75e7 | 1.70e7 | inactive
CG33284 | DRSC22905 | 3.65e7 | 3.44e7 | 2.01e7 | 1.58e7 | inactive
CG7747 | DRSC07038 | 3.76e7 | 3.49e7 | 1.70e7 | 1.68e7 | inactive
CG10347 | DRSC19352 | 3.26e7 | 4.54e7 | 1.67e7 | 2.12e7 | inactive
gfzf (GST-containing FLYWCH zinc-finger protein) | DRSC12506 | 3.98e7 | 3.14e7 | 2.35e7 | 1.60e7 | inactive
gfzf (GST-containing FLYWCH zinc-finger protein) | DRSC21874 | 2.68e7 | 4.91e7 | 1.57e7 | 2.37e7 | inactive
CG15498 | DRSC15040 | 3.30e7 | 3.75e7 | 4.42e7 | 1.63e7 | inactive
CG5846 | DRSC02904 | 5.40e7 | – | 2.62e7 | – | inactive
Ssl (Suppressor of Stellate-like) | DRSC04657 | 4.14e7 | 4.79e7 | 2.16e7 | 2.20e7 | inactive
hpRNA:CR32205 (hairpin RNA:CR32205) | DRSC09610 | 3.45e7 | 4.55e7 | 1.77e7 | 2.09e7 | inactive
hpRNA:CR32205 (hairpin RNA:CR32205) | DRSC09890 | 2.41e7 | 3.86e7 | 1.14e7 | 1.70e7 | inactive
CG14401 | DRSC02385 | 4.46e7 | 4.85e7 | 2.26e7 | 2.09e7 | inactive
CG14401 | DRSC21710 | 3.14e7 | 3.35e7 | 1.69e7 | 1.55e7 | inactive
NFAT (NFAT nuclear factor) | DRSC18991 | 1.36e7 | 1.61e7 | 8.22e6 | 8.13e6 | inactive
NFAT (NFAT nuclear factor) | DRSC19393 | 4.53e7 | 4.81e7 | 2.22e7 | 2.20e7 | inactive
Flo2 (Flotillin 2) | DRSC19062 | 3.46e7 | 3.88e7 | 1.65e7 | 1.67e7 | inactive
Flo2 (Flotillin 2) | DRSC20244 | 4.59e7 | 2.99e7 | 2.10e7 | 1.37e7 | inactive
CG7214 | DRSC03028 | 1.75e7 | 2.58e7 | 1.23e7 | 1.73e7 | inactive
CG7214 | DRSC21869 | 2.80e7 | 4.75e7 | 1.34e7 | 2.24e7 | inactive
aspr (asperous) | DRSC20689 | 4.28e7 | 5.41e7 | 2.13e7 | 2.26e7 | inactive
aspr (asperous) | DRSC20690 | 5.01e7 | 4.40e7 | 2.50e7 | 2.05e7 | inactive
CG34107 | DRSC14554 | 3.55e7 | 2.86e7 | 1.82e7 | 1.48e7 | inactive
CG34224 | DRSC05269 | 5.50e7 | 4.02e7 | 2.74e7 | 1.60e7 | inactive
Pgant7 (Polypeptide N-Acetylgalactosaminyltransferase 7) | DRSC19991 | 3.71e7 | 4.45e7 | 1.81e7 | 1.82e7 | inactive
CycY (Cyclin Y) | DRSC02420 | 4.41e7 | – | 2.18e7 | – | inactive
CG12780 | DRSC06169 | 4.41e7 | 4.36e7 | 2.27e7 | 1.85e7 | inactive
CG6996 | DRSC10758 | 1.91e7 | 3.28e7 | 1.08e7 | 1.37e7 | inactive
Nha2 (Na[+]/H[+] hydrogen antiporter 2) | DRSC14689 | 5.70e7 | 6.34e7 | 2.78e7 | 2.78e7 | inactive
Nha2 (Na[+]/H[+] hydrogen antiporter 2) | DRSC15619 | 5.89e7 | 4.64e7 | 3.20e7 | 2.30e7 | inactive
Nha2 (Na[+]/H[+] hydrogen antiporter 2) | DRSC15623 | 5.90e7 | 6.73e7 | 2.75e7 | 2.70e7 | inactive
CG15865 | DRSC19733 | 2.41e7 | 3.74e7 | 1.36e7 | 1.63e7 | inactive
Cyp9f3 (Cytochrome P450 9f3) | DRSC16636 | 3.18e7 | 3.01e7 | 1.57e7 | 1.60e7 | inactive
G6P (Glucose-6-Phosphatase) | DRSC00414 | 3.54e7 | 5.44e7 | 1.67e7 | 2.18e7 | inactive
CG17575 | DRSC06682 | 3.35e7 | 3.91e7 | 1.76e7 | 1.67e7 | inactive
sut4 (sugar transporter 4) | DRSC07703 | 3.68e7 | 3.12e7 | 1.66e7 | 1.53e7 | inactive
CG31802 | DRSC02459 | 5.41e7 | 3.49e7 | 2.27e7 | 1.56e7 | inactive
CG43188 | DRSC05260 | 3.32e7 | 5.19e7 | 1.68e7 | 2.13e7 | inactive

A run of entries from the list above:
Target gene | amplicon | calcium entry signal, replicate 1 (fluorescence units) | calcium entry signal, replicate 2 (fluorescence units) | resting calcium signal, replicate 1 (fluorescence units) | resting calcium signal, replicate 2 (fluorescence units) | Outcome
CG42818 | DRSC01963 | 5.14e7 | 3.61e7 | 2.25e7 | 1.81e7 | inactive
yip3 (yippee interacting protein 3) | DRSC04724 | 1.90e7 | 2.47e7 | 1.22e7 | 1.14e7 | inactive
Lrt (Leucine-rich tendon-specific protein) | DRSC06045 | 2.72e7 | 3.27e7 | 1.42e7 | 1.41e7 | inactive
CG6432 | DRSC16039 | 4.40e7 | 2.96e7 | 2.05e7 | 1.38e7 | inactive
CG17475 | DRSC15238 | 4.12e7 | 4.26e7 | 1.90e7 | 6.12e7 | inactive
RIOK1 (RIO kinase 1) | DRSC09853 | 4.70e7 | 3.82e7 | 3.40e7 | 1.47e7 | inactive
spz (spatzle) | DRSC17065 | 3.04e7 | 3.85e7 | 1.38e7 | 1.67e7 | inactive
Ir68a (Ionotropic receptor 68a) | DRSC10599 | 3.13e7 | 4.92e7 | 1.64e7 | 2.17e7 | inactive
CG33339 | DRSC22917 | 4.26e7 | 3.25e7 | 2.20e7 | 1.61e7 | inactive
